Values from PubChem BioAssay AID1671195 (Yale University, 2021).

- Assay: 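Genes whose knockdown alters LDL uptake in liver cancer cells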 (primary screen)
- Cells: human Huh7 hepatoma cells
- Reagent: siRNA pool against human genes, 18 nM
- Duration: about 2 to 2.5 days of knockdown, then 8 h LDL uptake
- Conditions: DiI-labelled LDL at 30 µg/ml for 8 h, in lipoprotein-deficient serum medium
- Detection: 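Per-cell DiI-LDL intensity by automated imaging; well means scaled to the plate median and given as a robust z-score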
- Direction: robust z-score: higher = more LDL uptake after knockdown
- Hit rule: 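Active when two or more replicates show a robust z-score above 2 or below -2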
Shown is one part, drawn at random, of about 22,000 reagents tested. About 1,510 of all reagents (6.9%) count as active. 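Active includes knockdowns raising or lowering LDL uptake; positive z-scores mean more uptake, negative mean less.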 Unmarked entries are inactive. The numbers tell different reagents against one gene apart.

gene | reagent no. | robust z-score, replicate 1 | robust z-score, replicate 2 | robust z-score, replicate 3
SETX (senataxin) | 1 | -0.791 | -0.238 | -0.522
PHKA1P1 (phosphorylase kinase regulatory subunit alpha 1 pseudogene) | 1 | -1.22 | -0.899 | -0.996
LYPLA1 (lysophospholipase 1) | 1 | 1.52 | 2.29 | 1.6
ATXN3L (ataxin 3 like) | 1 | 0.0902 | -0.718 | -0.484
GDF3 (growth differentiation factor 3) | 1 | -0.427 | 0.338 | -0.0594
LOC387870 (retired record) | 1 | 0.424 | 0.522 | 0.224
LTN1 (listerin E3 ubiquitin protein ligase 1) | 1 | -0.664 | -0.407 | 0.561
MCRIP2 (MAPK regulated corepressor interacting protein 2) | 1 | -0.837 | -0.358 | -0.519
RUFY2 (RUN and FYVE domain containing 2) | 1 | -1.17 | -0.736 | -1.36
GNB2 (G protein subunit beta 2) | 1 | 1.4 | 1.91 | 1.85
NDUFS2 (NADH:ubiquinone oxidoreductase core subunit S2) | 1 | 1.84 | 2.03 | 0.993
DCAF6 (DDB1 and CUL4 associated factor 6) | 1 | -0.0256 | -1.68 | -0.555
NSD1 (nuclear receptor binding SET domain protein 1) | 1 | 0.2 | 0.937 | 0.0145
VSIG10L (V-set and immunoglobulin domain containing 10 like) | 1 | -0.291 | -0.0318 | 0.000168
LOC442375 (retired record) | 1 | -0.88 | -0.0786 | -0.134
C2 (complement C2) | 1 | -0.149 | -0.778 | 0.0138
CD163L1 (CD163 molecule like 1) | 1 | -0.53 | 0.105 | -0.61
THUMPD3-AS1 (THUMPD3 antisense RNA 1) | 1 | 1.1 | 1.17 | 1.34
CLEC2A (C-type lectin domain family 2 member A) | 1 | -0.283 | 0.551 | -0.079
REL (REL proto-oncogene, NF-kB subunit) | 1 | -1.74 | -1.13 | -1.76
NIPAL4 (NIPA like domain containing 4) | 1 | 0.675 | 1.66 | 0.423
GTSF1 (gametocyte specific factor 1) | 1 | 0.847 | 0.454 | 0.02
OR3A2 (olfactory receptor family 3 subfamily A member 2) | 1 | 0.46 | 0.529 | 0.796
PRM1 (protamine 1) | 1 | -2.38 (active) | -0.47 | -2.46
BPIFB9P (BPI fold containing family B member 9, pseudogene) | 1 | 1.31 | 0.509 | 1.03
LINC00639 (long independently transcribed non-coding RNA 639) | 1 | 6.25 (active) | 7.33 | 5.62
TOMM22P5 (TOMM22 pseudogene 5) | 1 | -0.269 | -0.159 | -0.296
ATP6V1E2 (ATPase H+ transporting V1 subunit E2) | 1 | 0.452 | 0.0469 | -0.302
ATP6V1E2 (ATPase H+ transporting V1 subunit E2) | 2 | -0.757 | -1.54 | -1.22
WFDC1 (WAP four-disulfide core domain 1) | 1 | -1.02 | -0.479 | -1.07
SEMA4G (semaphorin 4G) | 1 | 0.968 | -0.15 | -0.154
LRRC46 (leucine rich repeat containing 46) | 1 | -0.172 | -1.17 | -1.13
HIC1 (HIC ZBTB transcriptional repressor 1) | 1 | 0.0232 | -0.519 | -0.752
SLC2A3 | 1 | -0.0679 | -0.5 | 0.26
CTSZ (cathepsin Z) | 1 | 0.627 | 0.141 | 0.0429
CXCL5 (C-X-C motif chemokine ligand 5) | 1 | 0.622 | -0.737 | -0.0161
LOC389403 (retired record) | 1 | -0.529 | -0.245 | -0.637
GPAA1 (glycosylphosphatidylinositol anchor attachment 1) | 1 | -1.04 | 1.5 | 0.222
ZNF548 (zinc finger protein 548) | 1 | 0.864 | 0.793 | 0.0231
HNMT (histamine N-methyltransferase) | 1 | -0.0469 | 0.0981 | 0.345
LOC442120 (retired record) | 1 | 0.348 | -0.0646 | 0.579
PLXNB1 (plexin B1) | 1 | 0.022 | 0.0445 | 0.78
EEF1AKMT2 (EEF1A lysine methyltransferase 2) | 1 | -0.243 | 0.0783 | 0.0544
LOC388688 (retired record) | 1 | -0.0428 | -1.22 | -1.41
HTN3 (histatin 3) | 1 | -1.25 | -0.0529 | -0.829
PRKCG (protein kinase C gamma) | 1 | -1.31 | -1.03 | -1.33

7 neighbouring reagents already listed:
gene | reagent no. | robust z-score, replicate 1 | robust z-score, replicate 2 | robust z-score, replicate 3
REL (REL proto-oncogene, NF-kB subunit) | 1 | -1.74 | -1.13 | -1.76
NIPAL4 (NIPA like domain containing 4) | 1 | 0.675 | 1.66 | 0.423
GTSF1 (gametocyte specific factor 1) | 1 | 0.847 | 0.454 | 0.02
OR3A2 (olfactory receptor family 3 subfamily A member 2) | 1 | 0.46 | 0.529 | 0.796
PRM1 (protamine 1) | 1 | -2.38 (active) | -0.47 | -2.46
BPIFB9P (BPI fold containing family B member 9, pseudogene) | 1 | 1.31 | 0.509 | 1.03
LINC00639 (long independently transcribed non-coding RNA 639) | 1 | 6.25 (active) | 7.33 | 5.62
